{"source": "PubChem BioAssay AID1159593 (NIAID, 2016)", "purpose": "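Canonical TLR pathway genes needed for NF-kappaB activation by LPS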", "system": "RAW264.7 macrophages of mouse, with reporters for p65 (GFP) and the Tnf promoter (mCherry)", "reagents": "single siRNA against mouse genes", "time to read-out": "48 to 72 hours after siRNA transfection, then LPS for 40 min", "conditions": "LPS (Salmonella minnesota R595) for 40 min before fixation; dose not given", "detection": "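Imaged nuclear over cytoplasmic GFP-p65 intensity after 40 min LPS, normalised per plate by median and MAD, robust z-score versus negative controls, mean of replicates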", "scale": "p65 translocation z-score: higher = more nuclear NF-kappaB p65 after LPS", "rule for the call": "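Activity score grows with absolute z: 25 beyond 1, 50 beyond 1.5, 75 beyond 2, 100 beyond 2.5; active calls here sit at about z 1.5 or more either way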", "meaning of the calls": "active = changed p65 translocation (either direction); inactive = no clear change", "note": "Shown is a random part of 756 reagents. 137 of them (18%) count as active. 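Active means p65 translocation went either up or down; genes were judged on the median of six siRNAs, not single siRNAs.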 Unmarked entries are inactive. Reagents against one gene are numbered here. Not stated in the record: the amount of reagent."}
{"gene symbol":"Irf5","siRNA no.":1,"p65 translocation z-score":-0.506}
{"gene symbol":"Irf5","siRNA no.":2,"p65 translocation z-score":-0.0321}
{"gene symbol":"Irf5","siRNA no.":3,"p65 translocation z-score":-0.11}
{"gene symbol":"Irf5","siRNA no.":4,"p65 translocation z-score":-0.0769}
{"gene symbol":"Irf5","siRNA no.":5,"p65 translocation z-score":-0.366}
{"gene symbol":"Irf5","siRNA no.":6,"p65 translocation z-score":"-2.36 (active)"}
{"gene symbol":"Tollip","siRNA no.":1,"p65 translocation z-score":0.799}
{"gene symbol":"Tollip","siRNA no.":2,"p65 translocation z-score":-1.17}
{"gene symbol":"Tollip","siRNA no.":3,"p65 translocation z-score":"-2.55 (active)"}
{"gene symbol":"Tollip","siRNA no.":4,"p65 translocation z-score":-0.667}
{"gene symbol":"Tollip","siRNA no.":5,"p65 translocation z-score":-0.51}
{"gene symbol":"Tollip","siRNA no.":6,"p65 translocation z-score":-1.1}
{"gene symbol":"Map2k4","siRNA no.":1,"p65 translocation z-score":0.731}
{"gene symbol":"Map2k4","siRNA no.":2,"p65 translocation z-score":-0.339}
{"gene symbol":"Map2k4","siRNA no.":3,"p65 translocation z-score":0.0352}
{"gene symbol":"Map2k4","siRNA no.":4,"p65 translocation z-score":"-1.62 (active)"}
{"gene symbol":"Map2k4","siRNA no.":5,"p65 translocation z-score":-0.855}
{"gene symbol":"Map2k4","siRNA no.":6,"p65 translocation z-score":0.187}
{"gene symbol":"Tab3","siRNA no.":1,"p65 translocation z-score":-0.0907}
{"gene symbol":"Tab3","siRNA no.":2,"p65 translocation z-score":0.233}
{"gene symbol":"Tab3","siRNA no.":3,"p65 translocation z-score":-0.944}
{"gene symbol":"Tab3","siRNA no.":4,"p65 translocation z-score":0.275}
{"gene symbol":"Tab3","siRNA no.":5,"p65 translocation z-score":"1.63 (active)"}
{"gene symbol":"Tab3","siRNA no.":6,"p65 translocation z-score":1.13}
{"gene symbol":"Ifnb1","siRNA no.":1,"p65 translocation z-score":1.19}
{"gene symbol":"Ifnb1","siRNA no.":2,"p65 translocation z-score":0.122}
{"gene symbol":"Ifnb1","siRNA no.":3,"p65 translocation z-score":"-1.51 (active)"}
{"gene symbol":"Ifnb1","siRNA no.":4,"p65 translocation z-score":-0.227}
{"gene symbol":"Ifnb1","siRNA no.":5,"p65 translocation z-score":-0.62}
{"gene symbol":"Ifnb1","siRNA no.":6,"p65 translocation z-score":-0.545}
{"gene symbol":"Map3k14","siRNA no.":1,"p65 translocation z-score":-0.553}
{"gene symbol":"Map3k14","siRNA no.":2,"p65 translocation z-score":0.887}
{"gene symbol":"Map3k14","siRNA no.":3,"p65 translocation z-score":-1.27}
{"gene symbol":"Map3k14","siRNA no.":4,"p65 translocation z-score":0.286}
{"gene symbol":"Map3k14","siRNA no.":5,"p65 translocation z-score":"5.75 (active)"}
{"gene symbol":"Map3k14","siRNA no.":6,"p65 translocation z-score":-1.48}
{"gene symbol":"Mapk13","siRNA no.":1,"p65 translocation z-score":-0.903}
{"gene symbol":"Mapk13","siRNA no.":2,"p65 translocation z-score":"-2.09 (active)"}
{"gene symbol":"Mapk13","siRNA no.":3,"p65 translocation z-score":-0.231}
{"gene symbol":"Mapk13","siRNA no.":4,"p65 translocation z-score":0.201}
{"gene symbol":"Mapk13","siRNA no.":5,"p65 translocation z-score":0.588}
{"gene symbol":"Mapk13","siRNA no.":6,"p65 translocation z-score":-0.431}
{"gene symbol":"Map2k1","siRNA no.":1,"p65 translocation z-score":0.634}
{"gene symbol":"Map2k1","siRNA no.":2,"p65 translocation z-score":0.169}
{"gene symbol":"Map2k1","siRNA no.":3,"p65 translocation z-score":-0.145}
{"gene symbol":"Map2k1","siRNA no.":4,"p65 translocation z-score":0.205}
{"gene symbol":"Map2k1","siRNA no.":5,"p65 translocation z-score":0.658}
{"gene symbol":"Map2k1","siRNA no.":6,"p65 translocation z-score":0.317}

Quoted from the entries so far, 2 entries:
{"gene symbol":"Irf5","siRNA no.":5,"p65 translocation z-score":-0.366}
{"gene symbol":"Irf5","siRNA no.":6,"p65 translocation z-score":"-2.36 (active)"}
